The values that follow come from the supplement of paper PMC4807443.

Structures can show the parent of a compound that is named as a salt. The list shows a part of the results. The numbers are fractions of the control, whatever unit the source prints. Most values lie at the level of the controls, where differences are scatter.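 MIN6, a mouse insulinoma beta-cell line, stably carries a lentiviral reporter where Pdx1 and Ins1 promoters each drive a nuclear fluorescent protein; Hoechst staining and automated imaging counted cells. Drugs were candidate hits if Ins1 promoter readout exceeded two median absolute deviations from DMSO controls while Pdx1 activity stayed near normal.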

The assay deals with MIN6. Kind of assay: % Pdx1+ Ins1-low (RFP-only, immature) cells relative to DMSO control (fold of DMSO control); higher = more immature Pdx1+/Ins1-low cells. As to conditions: 8.5 µM; 48 h; glucose 5 mM.
As to `CN1[C@@H]2C[C@@H](OC(=O)[C@H](CO)c3ccccc3)C[C@H]1[C@@H]1O[C@@H]12` [Scopolamine hydrochloride], the “% Pdx1+ Ins1-low” value worked out at 1.07.

Regarding `N[C@@H]1C[C@H]1c1ccccc1` [Tranylcypromine hydrochloride], the “% Pdx1+ Ins1-low” value worked out at 0.796.

Regarding `COc1cc(C(=O)OC2CC3CCC(C2)N3C)ccc1O` (stereo not drawn) [Fillalbin], the “% Pdx1+ Ins1-low” value was determined as 1.09.

As for `NCC(CC(=O)O)c1ccc(Cl)cc1` (racemic) [Baclofen (R,S)], the “% Pdx1+ Ins1-low” value amounted to 0.861.

As to `CN[C@@H]1[C@@H](O)[C@@H](O[C@@H]2[C@@H](O)[C@H](O[C@H]3O[C@H](CN)CC[C@H]3N)[C@@H](N)C[C@H]2N)OC[C@]1(C)O.CN[C@@H]1[C@@H](O)[C@@H](O[C@@H]2[C@@H](O)[C@H](O[C@H]3O[C@H]([C@@H](C)N)CC[C@H]3N)[C@@H](N)C[C@H]2N)OC[C@]1(C)O.CN[C@@H]1[C@@H](O)[C@@H](O[C@@H]2[C@@H](O)[C@H](O[C@H]3O[C@H]([C@@H](C)NC)CC[C@H]3N)[C@@H](N)C[C@H]2N)OC[C@]1(C)O` [Gentamicine sulfate], the “% Pdx1+ Ins1-low” value was 0.689.

Regarding `COc1ccc2c(c1O)-c1c(OC)c(OC)cc3c1[C@H](C2)N(C)CC3` [Isocorydine (+)], the “% Pdx1+ Ins1-low” value is 0.922.

Turning to `O=C1CC[C@@]2(O)[C@H]3Cc4ccc(O)c5c4[C@@]2(CCN3CC2CC2)[C@H]1O5` [Naltrexone hydrochloride dihydrate], the “% Pdx1+ Ins1-low” value turned out to be 1.24.

For the compound `CCN1C[C@]2(C)CC[C@H](O)[C@]34C1[C@@H](C[C@H]23)[C@@]1(O)C[C@H](OC)[C@H]2C[C@@H]4[C@@H]1[C@H]2O` [Karakoline], the “% Pdx1+ Ins1-low” value stood at 1.22.

`CN1CCC2(C)c3cc(O)ccc3N(C)C12` (single isomer, unassigned; (-)) [(-)-Eseroline fumarate salt]: the “% Pdx1+ Ins1-low” value came to 0.844.

Regarding `CC(NC(C)(C)C)C(=O)c1cccc(Cl)c1` (stereo not drawn) [Bupropion hydrochloride], the “% Pdx1+ Ins1-low” value worked out at 0.847.

On to `O=c1ccc2cc(O[C@@H]3O[C@H](CO)[C@@H](O)[C@H](O)[C@H]3O)c(O)cc2o1` [Esculin Hydrate], for which the “% Pdx1+ Ins1-low” value came out at 0.71.

As to `O=c1c2ccccc2[se]n1-c1ccccc1` [Ebselen], the “% Pdx1+ Ins1-low” value turned out to be 1.09.

With `CC(=O)O[C@H]1C[C@@H]2CC[C@@H]3[C@H](CC[C@@]4(C)[C@H]3C[C@H]([N+]3(C)CCCCC3)[C@@H]4OC(C)=O)[C@@]2(C)C[C@@H]1[N+]1(C)CCCCC1` [Pancuronium bromide], the “% Pdx1+ Ins1-low” value came out at 0.673.

With `COc1c2c(cc3c1OCO3)CCN(C)C2` [Hydrocotarnine hydrobromide], the “% Pdx1+ Ins1-low” value was 1.

On to `C=CCN1CC[C@]23c4c5ccc(O)c4O[C@H]2C(=O)CC[C@@]3(O)[C@H]1C5` [Naloxone hydrochloride], for which the “% Pdx1+ Ins1-low” value amounted to 1.18.

`C[C@]12C[C@H]3S[C@H]3C[C@@H]1CC[C@@H]1[C@@H]2CC[C@]2(C)[C@@H](O)CC[C@@H]12` [Epitiostanol]: the “% Pdx1+ Ins1-low” value was 1.11.

With `COP(=O)(OC)C(O)C(Cl)(Cl)Cl` (stereo not drawn) [Trichlorfon], the “% Pdx1+ Ins1-low” value amounted to 0.8.

With `C[C@H]1CC[C@]2(NC1)O[C@H]1C[C@H]3[C@@H]4CC[C@H]5C[C@@H](O)CC[C@]5(C)[C@H]4CC[C@]3(C)[C@H]1[C@@H]2C` [Tomatidine], the “% Pdx1+ Ins1-low” value was 0.848.

In the case of `C[C@]12CCC(=O)C=C1C=C[C@@H]1[C@@H]2CC[C@@]2(C)[C@H]1CC[C@@]2(O)CCC(=O)O` [Canrenoic acid potassium salt], the “% Pdx1+ Ins1-low” value came out at 0.547.

For the compound `C(#CCN1CCCC1)CN1CCCC1` [Tremorine dihydrochloride], the “% Pdx1+ Ins1-low” value was found to be 0.941.

In the case of `CCCN1CCC[C@@H]2Cc3n[nH]cc3C[C@H]21` [(-)-Quinpirole hydrochloride], the “% Pdx1+ Ins1-low” value amounted to 0.962.

With `C[C@]12CC[C@H](O)C[C@H]1CC[C@@H]1[C@@H]2CC[C@]2(C)[C@@H](C3=CC(=O)OC3)CC[C@]12O` [Digitoxigenin], the “% Pdx1+ Ins1-low” value stood at 1.16.

As to `CC(C)c1cccc(C(C)C)c1O` [Propofol], the “% Pdx1+ Ins1-low” value worked out at 0.649.

Consider `COC1=CC(=O)O[C@@H](/C=C/c2ccccc2)C1` [Kawain], for which the “% Pdx1+ Ins1-low” value amounted to 0.863.

As for `Oc1ccc2c3c1O[C@H]1[C@@H](O)CC[C@@]4(O)[C@@H](C2)N(CC2CCC2)CC[C@]314` [Nalbuphine hydrochloride], the “% Pdx1+ Ins1-low” value stood at 0.777.

Consider `CN1CCc2cc3c(cc2[C@H]1[C@@H]1OC(=O)c2c1ccc1c2OCO1)OCO3` [Bicuculline (+)], for which the “% Pdx1+ Ins1-low” value amounted to 1.64.

Consider `O=C(NCNC(=O)NC1C(=O)NC(=O)N1CO)NC1C(=O)NC(=O)N1CO` (stereo not drawn) [Imidurea], for which the “% Pdx1+ Ins1-low” value was 0.903.

Turning to `CC(=O)O[C@H]1CC[C@@]2(C)C(=CC[C@@H]3[C@@H]2CC[C@]2(C)C(=O)CC[C@@H]32)C1` [Dehydroisoandosterone 3-acetate], the “% Pdx1+ Ins1-low” value is 0.883.

Consider `CN1C[C@H](CNC(=O)OCc2ccccc2)C[C@@H]2c3cccc4c3c(cn4C)C[C@H]21` [Metergoline], for which the “% Pdx1+ Ins1-low” value is 1.24.

On to `COc1cc2c(c(OC)c1OC)-c1ccc(OC)c(=O)cc1[C@@H](NC(C)=O)CC2` [Colchicine], for which the “% Pdx1+ Ins1-low” value stood at 1.41.

Consider `COc1ccc2c(c1OC)CN1CCc3cc4c(cc3C1C2)OCO4` (stereo not drawn) [(d,l)-Tetrahydroberberine], for which the “% Pdx1+ Ins1-low” value came to 1.01.

As for `C[C@H]1O[C@@H](O[C@H]2CC[C@]3(C=O)[C@H]4CC[C@]5(C)[C@@H](C6=CC(=O)OC6)CC[C@]5(O)[C@@H]4CC[C@]3(O)C2)C[C@H](O)[C@@H]1O` [Helveticoside], the “% Pdx1+ Ins1-low” value is 0.581.

As for `CC[N+]1(C)CCCC(OC(=O)C(O)(c2ccccc2)c2ccccc2)C1` (stereo not drawn) [Pipenzolate bromide], the “% Pdx1+ Ins1-low” value is 0.647.

`c1ccc2c(c1)OCC(C1=NCCN1)O2` (stereo not drawn) [Idazoxan hydrochloride]: the “% Pdx1+ Ins1-low” value amounted to 0.802.

As for `C=C1C/C(=C/C)C(=O)O[C@@H]2CCN3CC=C(COC(=O)[C@]1(C)O)[C@H]23` [Seneciphylline], the “% Pdx1+ Ins1-low” value turned out to be 1.12.

For `CCCCCC[C@H]1C(=O)O[C@H](C)[C@H](NC(=O)c2cccc(NC=O)c2O)C(=O)O[C@@H](C)[C@@H]1OC(=O)CC(C)C` [Antimycin A], the “% Pdx1+ Ins1-low” value worked out at 1.36.

In the case of `COc1ccc2c(c1OC)C(=O)O[C@@H]2[C@H]1c2cc3c(cc2CCN1C)OCO3` [Hydrastine hydrochloride], the “% Pdx1+ Ins1-low” value came to 0.989.

With `C[C@@H]1C[C@@H]([C@H](O)CC2CC(=O)NC(=O)C2)C(=O)[C@@H](C)C1` [Cycloheximide], the “% Pdx1+ Ins1-low” value came to 1.3.

Take `CC[C@@H](CO)NC(=O)[C@@H]1C=C2c3cccc4[nH]cc(c34)C[C@H]2N(C)C1` [Methylergometrine maleate]: the “% Pdx1+ Ins1-low” value turned out to be 1.32.

Regarding `c1cncc([C@@H]2CCCCN2)c1` [Anabasine], the “% Pdx1+ Ins1-low” value was 0.84.

Consider `O=c1[nH]oc2c1CCNC2` [THIP Hydrochloride], for which the “% Pdx1+ Ins1-low” value was determined as 0.959.

As to `CC(N)C(O)c1ccccc1` (stereo not drawn) [Phenylpropanolamine hydrochloride], the “% Pdx1+ Ins1-low” value stood at 1.89.

Regarding `O=C(CCCN1CCC2(CC1)C(=O)NCN2c1ccccc1)c1ccc(F)cc1` [Spiperone], the “% Pdx1+ Ins1-low” value was 1.18.

Take `CC(C)C[C@H]1C(=O)N2CCC[C@H]2[C@]2(O)O[C@](NC(=O)[C@@H]3C=C4c5cccc6[nH]cc(c56)C[C@H]4N(C)C3)(C(C)C)C(=O)N12` [Ergocryptine-alpha]: the “% Pdx1+ Ins1-low” value was 1.69.

Consider `CCN1C[C@]2(COC)CC[C@H](O)[C@]34C1[C@@](O)([C@@H](OC)[C@H]23)[C@@]1(O)C[C@H](OC)[C@H]2C[C@@H]4[C@@H]1[C@H]2OC` [Delsoline], for which the “% Pdx1+ Ins1-low” value is 1.11.

As for `O=[N+]([O-])O[C@H]1CO[C@H]2[C@@H]1OC[C@H]2O[N+](=O)[O-]` [Isosorbide dinitrate], the “% Pdx1+ Ins1-low” value was found to be 0.922.

As for `CCN1C[C@]2(COC)CC[C@H](OC)[C@]34C5C[C@@H]6[C@@H](OC)C[C@@]7(OCO[C@@]7(C13)[C@@H](O)C24)C5[C@H]6OC` (stereo partly drawn) [Delcorine], the “% Pdx1+ Ins1-low” value amounted to 0.808.

`NCC1(CC(=O)O)CCCCC1` [Gabapentin]: the “% Pdx1+ Ins1-low” value stood at 0.78.

On to `O=c1cccc2n1C[C@@H]1CNC[C@H]2C1` [Cytisine (-)], for which the “% Pdx1+ Ins1-low” value is 1.05.

Turning to `CC[C@@H](C)C(=O)O[C@H]1[C@H](O)[C@H]2[C@@H](CN3C[C@@H](C)CC[C@H]3[C@@]2(C)O)[C@@H]2C[C@]34O[C@]5(O)[C@@H](OC(=O)[C@@](C)(O)CC)CC[C@@]3(C)[C@@H]5[C@@H](OC(C)=O)[C@@H](OC(C)=O)[C@H]4[C@@]21O` [Protoveratrine A], the “% Pdx1+ Ins1-low” value is 0.863.

`CCOC(=O)c1cncn1[C@H](C)c1ccccc1` [Etomidate]: the “% Pdx1+ Ins1-low” value was found to be 0.849.

Regarding `COc1ccc(CC2c3cc(OC)c(OC)cc3CCN2C)cc1OC` (racemic) [Laudanosine (R,S)], the “% Pdx1+ Ins1-low” value worked out at 1.21.

On to `CCCC(C)(COC(N)=O)COC(=O)NC(C)C` (stereo not drawn) [Carisoprodol], for which the “% Pdx1+ Ins1-low” value came to 0.839.

`C[C@@]12C(=O)OC(=O)[C@]1(C)[C@H]1CC[C@@H]2O1` [Cantharidin]: the “% Pdx1+ Ins1-low” value is 0.789.

As to `CCC1(C)CC(=O)NC(=O)C1` [Bemegride], the “% Pdx1+ Ins1-low” value was 1.32.

On to `C[N+]1(C)CCCC(OC(=O)C(O)(c2ccccc2)c2ccccc2)C1` (stereo not drawn) [Mepenzolate bromide], for which the “% Pdx1+ Ins1-low” value was 0.877.

As for `CN1C2CCC1CC(O)C2` (stereo not drawn) [Tropine], the “% Pdx1+ Ins1-low” value was found to be 1.39.

Consider `OC(c1ccccc1)(c1ccccc1)C1CCNCC1` [Azacyclonol], for which the “% Pdx1+ Ins1-low” value turned out to be 0.998.

On to `COc1cc2c(cc1O)C[C@H]1c3c(cc(O)c(OC)c3-2)CCN1C` [Boldine], for which the “% Pdx1+ Ins1-low” value amounted to 0.597.

For the compound `COc1ccc(C(=O)OC2C[C@H]3CC[C@@H](C2)N3C)cc1OC` (stereo partly drawn) [Convolamine hydrochloride], the “% Pdx1+ Ins1-low” value was determined as 0.725.

On to `C[C@H]1CC[C@]2(NC1)O[C@H]1C[C@H]3[C@@H]4CC[C@H]5C[C@@H](O[C@@H]6O[C@H](CO)[C@H](O[C@@H]7O[C@H](CO)[C@@H](O)[C@H](O[C@@H]8OC[C@@H](O)[C@H](O)[C@H]8O)[C@H]7O[C@@H]7O[C@H](CO)[C@@H](O)[C@H](O)[C@H]7O)[C@H](O)[C@H]6O)CC[C@]5(C)[C@H]4CC[C@]3(C)[C@H]1[C@@H]2C` [Tomatine], for which the “% Pdx1+ Ins1-low” value is 0.66.

Take `O=C(CCCN1CCC(n2c(=O)[nH]c3ccccc32)CC1)c1ccc(F)cc1` [Benperidol]: the “% Pdx1+ Ins1-low” value was determined as 0.873.

Take `C[C@@H]1CN([C@H]2CC[C@](C#N)(c3ccc(F)cc3)CC2)CC[C@]1(C(=O)O)c1ccccc1` [Levocabastine hydrochloride]: the “% Pdx1+ Ins1-low” value was determined as 1.07.
